Reference: the supplement of paper PMC12823440, “Inhibitors supercharge kinase turnover through native proteolytic circuits” (Nature, 2025)
Structures can show the parent of a compound that is named as a salt. The list shows a part of the results. The calls rarely recur for the same compound in another form.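 Kinases were expressed as nanoluciferase fusions in K562 cells and luminescence was read every 4 h between 2 and 18 h as percent of control, DMSO set to 100% and a positive control to 0%. A time point counts as decreased when the signal drops significantly (2 sigma). The hit call is the authors' own, does not follow from the count of time points alone, and its rule is not shown.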

Chains of the proteins cited; added tags and fusions are not shown. Lines headed by an entry give the natural chain unless they say otherwise; changes in a name come on top.
UniProt O15530: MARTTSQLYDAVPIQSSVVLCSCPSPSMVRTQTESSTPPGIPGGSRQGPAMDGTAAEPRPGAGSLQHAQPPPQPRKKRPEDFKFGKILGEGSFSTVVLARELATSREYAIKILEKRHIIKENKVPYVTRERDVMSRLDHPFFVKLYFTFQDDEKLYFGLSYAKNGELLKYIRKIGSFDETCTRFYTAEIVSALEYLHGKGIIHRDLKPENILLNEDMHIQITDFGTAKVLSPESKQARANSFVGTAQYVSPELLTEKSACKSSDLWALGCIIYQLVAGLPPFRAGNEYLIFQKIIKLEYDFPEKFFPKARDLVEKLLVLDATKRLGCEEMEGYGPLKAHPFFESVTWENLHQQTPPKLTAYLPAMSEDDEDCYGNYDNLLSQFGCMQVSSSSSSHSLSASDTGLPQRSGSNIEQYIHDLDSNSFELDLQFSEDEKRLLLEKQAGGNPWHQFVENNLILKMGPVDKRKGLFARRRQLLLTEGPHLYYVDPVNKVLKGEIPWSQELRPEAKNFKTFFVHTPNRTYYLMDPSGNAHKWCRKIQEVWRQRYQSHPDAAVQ
UniProt P42356, whole entry, looked up: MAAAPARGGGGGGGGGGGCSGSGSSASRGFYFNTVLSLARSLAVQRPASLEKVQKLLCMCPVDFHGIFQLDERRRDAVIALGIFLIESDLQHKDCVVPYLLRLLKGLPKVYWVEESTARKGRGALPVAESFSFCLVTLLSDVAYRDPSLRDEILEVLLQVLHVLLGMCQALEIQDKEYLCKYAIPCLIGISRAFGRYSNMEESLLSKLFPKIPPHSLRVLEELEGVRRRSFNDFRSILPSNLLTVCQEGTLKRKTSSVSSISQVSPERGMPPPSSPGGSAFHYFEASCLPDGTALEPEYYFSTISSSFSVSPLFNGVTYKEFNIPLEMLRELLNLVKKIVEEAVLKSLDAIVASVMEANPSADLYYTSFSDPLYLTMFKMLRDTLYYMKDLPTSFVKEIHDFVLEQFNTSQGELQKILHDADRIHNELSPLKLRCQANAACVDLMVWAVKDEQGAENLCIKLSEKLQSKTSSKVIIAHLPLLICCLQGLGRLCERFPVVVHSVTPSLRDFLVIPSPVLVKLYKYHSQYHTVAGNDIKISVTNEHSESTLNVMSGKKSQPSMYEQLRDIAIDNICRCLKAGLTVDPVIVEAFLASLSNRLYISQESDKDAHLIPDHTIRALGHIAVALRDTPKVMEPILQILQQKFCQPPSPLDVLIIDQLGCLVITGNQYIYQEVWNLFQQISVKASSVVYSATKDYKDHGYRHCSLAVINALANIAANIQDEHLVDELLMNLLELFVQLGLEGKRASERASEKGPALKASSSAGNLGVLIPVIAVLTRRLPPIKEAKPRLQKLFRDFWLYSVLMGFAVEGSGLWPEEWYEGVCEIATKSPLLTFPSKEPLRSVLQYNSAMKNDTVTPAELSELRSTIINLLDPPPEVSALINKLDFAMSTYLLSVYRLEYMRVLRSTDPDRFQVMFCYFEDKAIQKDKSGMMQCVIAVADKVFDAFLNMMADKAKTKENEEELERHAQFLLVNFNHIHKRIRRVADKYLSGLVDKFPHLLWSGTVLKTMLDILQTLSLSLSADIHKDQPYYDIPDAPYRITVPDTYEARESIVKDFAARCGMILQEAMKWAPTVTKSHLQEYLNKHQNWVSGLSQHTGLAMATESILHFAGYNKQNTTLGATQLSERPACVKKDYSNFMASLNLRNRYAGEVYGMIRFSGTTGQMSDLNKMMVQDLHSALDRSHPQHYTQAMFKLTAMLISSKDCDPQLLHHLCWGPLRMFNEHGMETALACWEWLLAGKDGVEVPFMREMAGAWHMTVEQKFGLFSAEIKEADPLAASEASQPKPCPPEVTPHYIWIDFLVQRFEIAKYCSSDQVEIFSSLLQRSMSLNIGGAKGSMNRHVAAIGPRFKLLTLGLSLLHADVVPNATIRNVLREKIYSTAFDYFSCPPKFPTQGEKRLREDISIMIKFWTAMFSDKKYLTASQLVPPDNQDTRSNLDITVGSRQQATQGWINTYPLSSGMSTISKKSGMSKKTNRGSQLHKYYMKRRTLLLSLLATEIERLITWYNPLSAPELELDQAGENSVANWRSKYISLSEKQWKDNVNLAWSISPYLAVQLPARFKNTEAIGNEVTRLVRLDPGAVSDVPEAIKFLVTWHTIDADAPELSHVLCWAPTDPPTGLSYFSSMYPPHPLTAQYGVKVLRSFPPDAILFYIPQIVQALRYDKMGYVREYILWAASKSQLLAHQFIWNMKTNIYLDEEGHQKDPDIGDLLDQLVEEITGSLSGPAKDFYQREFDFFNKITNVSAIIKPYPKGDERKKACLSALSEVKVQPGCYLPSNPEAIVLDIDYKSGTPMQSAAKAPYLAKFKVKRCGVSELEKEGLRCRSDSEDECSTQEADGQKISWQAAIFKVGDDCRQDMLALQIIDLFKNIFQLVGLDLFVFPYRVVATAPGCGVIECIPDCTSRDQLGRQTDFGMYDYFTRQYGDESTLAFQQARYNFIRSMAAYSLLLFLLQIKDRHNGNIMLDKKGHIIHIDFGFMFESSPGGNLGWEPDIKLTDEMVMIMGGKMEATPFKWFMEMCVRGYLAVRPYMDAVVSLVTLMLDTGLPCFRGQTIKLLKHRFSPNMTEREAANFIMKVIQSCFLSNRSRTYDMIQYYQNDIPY
UniProt Q9UBF8: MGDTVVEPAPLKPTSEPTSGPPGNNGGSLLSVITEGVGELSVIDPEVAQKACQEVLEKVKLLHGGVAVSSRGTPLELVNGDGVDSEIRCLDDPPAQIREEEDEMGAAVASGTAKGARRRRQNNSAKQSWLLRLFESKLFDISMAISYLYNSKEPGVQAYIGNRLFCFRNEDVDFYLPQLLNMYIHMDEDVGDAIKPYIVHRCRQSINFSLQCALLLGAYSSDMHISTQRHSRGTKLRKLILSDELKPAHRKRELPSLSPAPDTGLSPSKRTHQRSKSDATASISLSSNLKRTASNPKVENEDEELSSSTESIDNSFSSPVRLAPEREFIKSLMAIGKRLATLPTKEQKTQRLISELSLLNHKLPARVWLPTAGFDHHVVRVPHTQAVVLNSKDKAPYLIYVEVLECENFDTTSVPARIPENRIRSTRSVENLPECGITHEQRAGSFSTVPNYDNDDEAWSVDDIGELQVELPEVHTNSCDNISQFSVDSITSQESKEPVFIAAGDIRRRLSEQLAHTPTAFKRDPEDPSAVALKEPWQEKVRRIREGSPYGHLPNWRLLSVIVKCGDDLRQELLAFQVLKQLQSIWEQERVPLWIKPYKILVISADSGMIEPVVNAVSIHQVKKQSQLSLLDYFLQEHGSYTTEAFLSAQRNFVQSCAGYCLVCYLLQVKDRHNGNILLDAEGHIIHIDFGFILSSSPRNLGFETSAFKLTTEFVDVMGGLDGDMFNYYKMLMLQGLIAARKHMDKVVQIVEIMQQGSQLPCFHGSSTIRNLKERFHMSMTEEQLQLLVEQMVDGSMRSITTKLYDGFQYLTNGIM
UniProt P53350, whole entry: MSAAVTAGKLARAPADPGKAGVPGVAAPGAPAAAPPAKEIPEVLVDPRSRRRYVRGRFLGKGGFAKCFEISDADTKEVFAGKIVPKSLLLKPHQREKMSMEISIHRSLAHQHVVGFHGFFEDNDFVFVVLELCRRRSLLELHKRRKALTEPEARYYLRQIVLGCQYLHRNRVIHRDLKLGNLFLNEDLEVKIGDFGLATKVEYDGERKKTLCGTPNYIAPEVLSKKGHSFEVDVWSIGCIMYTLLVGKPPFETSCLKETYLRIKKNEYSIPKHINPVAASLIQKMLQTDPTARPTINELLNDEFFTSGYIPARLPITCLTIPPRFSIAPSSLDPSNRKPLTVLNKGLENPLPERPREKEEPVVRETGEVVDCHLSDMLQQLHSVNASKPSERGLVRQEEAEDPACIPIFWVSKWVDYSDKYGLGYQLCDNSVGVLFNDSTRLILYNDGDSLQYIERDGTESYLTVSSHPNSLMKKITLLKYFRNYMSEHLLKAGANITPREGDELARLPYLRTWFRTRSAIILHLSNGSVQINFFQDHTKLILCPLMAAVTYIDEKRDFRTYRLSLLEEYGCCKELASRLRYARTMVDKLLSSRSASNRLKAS
UniProt Q13131: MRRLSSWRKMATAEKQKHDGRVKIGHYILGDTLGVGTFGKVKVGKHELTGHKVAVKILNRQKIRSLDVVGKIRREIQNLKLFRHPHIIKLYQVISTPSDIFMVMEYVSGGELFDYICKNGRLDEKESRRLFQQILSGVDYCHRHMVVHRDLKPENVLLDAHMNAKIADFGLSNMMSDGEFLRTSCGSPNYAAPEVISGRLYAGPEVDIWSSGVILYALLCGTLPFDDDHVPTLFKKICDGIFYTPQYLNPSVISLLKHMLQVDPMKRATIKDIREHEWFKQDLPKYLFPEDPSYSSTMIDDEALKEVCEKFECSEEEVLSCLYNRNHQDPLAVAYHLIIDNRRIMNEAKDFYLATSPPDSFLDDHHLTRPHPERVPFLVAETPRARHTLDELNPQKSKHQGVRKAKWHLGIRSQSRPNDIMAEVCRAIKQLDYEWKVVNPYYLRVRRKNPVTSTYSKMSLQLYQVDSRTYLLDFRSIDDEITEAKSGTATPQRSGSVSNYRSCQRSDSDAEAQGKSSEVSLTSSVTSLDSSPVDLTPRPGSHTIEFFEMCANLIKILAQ
UniProt Q05397, whole entry, looked up: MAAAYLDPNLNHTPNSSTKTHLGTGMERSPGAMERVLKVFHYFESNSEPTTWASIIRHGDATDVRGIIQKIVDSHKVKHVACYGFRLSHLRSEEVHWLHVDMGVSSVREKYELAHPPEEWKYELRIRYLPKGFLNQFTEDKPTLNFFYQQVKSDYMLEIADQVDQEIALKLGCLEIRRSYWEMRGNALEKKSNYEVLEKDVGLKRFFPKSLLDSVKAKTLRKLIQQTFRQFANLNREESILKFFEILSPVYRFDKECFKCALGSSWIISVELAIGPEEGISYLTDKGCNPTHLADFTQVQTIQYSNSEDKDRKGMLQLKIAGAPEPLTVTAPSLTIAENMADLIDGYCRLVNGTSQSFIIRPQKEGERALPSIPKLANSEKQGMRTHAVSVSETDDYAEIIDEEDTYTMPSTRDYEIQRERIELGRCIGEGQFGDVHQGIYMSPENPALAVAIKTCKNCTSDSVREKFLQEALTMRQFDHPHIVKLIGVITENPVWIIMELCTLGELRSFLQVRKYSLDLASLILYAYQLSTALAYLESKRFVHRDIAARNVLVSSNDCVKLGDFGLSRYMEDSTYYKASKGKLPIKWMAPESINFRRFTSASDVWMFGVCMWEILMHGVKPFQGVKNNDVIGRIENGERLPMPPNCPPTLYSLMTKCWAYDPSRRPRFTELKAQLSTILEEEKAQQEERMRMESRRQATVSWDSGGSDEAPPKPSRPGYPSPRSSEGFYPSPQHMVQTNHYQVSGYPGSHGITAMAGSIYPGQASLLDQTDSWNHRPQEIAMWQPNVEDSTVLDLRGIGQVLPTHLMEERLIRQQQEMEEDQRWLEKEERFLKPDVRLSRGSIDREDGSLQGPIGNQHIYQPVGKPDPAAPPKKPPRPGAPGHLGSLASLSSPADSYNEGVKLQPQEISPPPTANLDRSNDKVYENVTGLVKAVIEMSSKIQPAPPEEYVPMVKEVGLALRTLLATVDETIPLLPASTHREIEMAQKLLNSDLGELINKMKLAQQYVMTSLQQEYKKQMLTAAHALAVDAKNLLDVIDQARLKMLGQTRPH

Assays:
Experiment in all cases: kinase-Nluc reporter destabilization hit call (1 = scored as downregulated) (binary); higher = compound decreases kinase abundance
Conditions in all cases: K562; 2-18 h
PDPK1 = PDPK1 (UniProt O15530)
PIK4CA = PIK4CA (UniProt P42356)
PIK4CB = PIK4CB (UniProt Q9UBF8)
PLK1 = PLK1 (UniProt P53350)
PRKAA1 = PRKAA1 (UniProt Q13131)
PRKCA = PRKCA (UniProt P17252)
PTK2 = PTK2 (UniProt Q05397)
PTK2B = PTK2B (UniProt Q14289)
RAF1 = RAF1 (UniProt P04049)
[1] = target: RAF1_S257L (clone: RAF1_mut) (UniProt P04049)

Measured: kinase-Nluc reporter destabilization hit call

NCCOc1ccc(Cl)cc1C(=O)Nc1ccc([N+](=O)[O-])cc1Cl [HJC0152 hydrochloride] (2 µM)
inactive: PDPK1 = 0 | PIK4CA 0 | PIK4CB 0 | PLK1 = 0 | PRKAA1 = 0 | PRKCA 0 | PTK2 = 0 | PTK2B 0 | RAF1 = 0 | [1] 0

Nc1[nH]nc2nc(-c3ccc(NS(=O)(=O)c4cc(Cl)ccc4Cl)cc3)cnc12 (10 µM)
inactive: PDPK1 = 0 | PIK4CA 0 | PIK4CB 0 | PLK1 = 0 | PRKAA1 = 0 | PRKCA 0 | PTK2 = 0 | PTK2B 0 | RAF1 = 0 | [1] 0

CC(Cc1ccc(O)c(O)c1)C(C)Cc1ccc(O)c(O)c1 (stereo not given) [Nordihydroguaiaretic acid] (2.5 µM)
inactive: PDPK1 = 0 | PIK4CA 0 | PIK4CB 0 | PLK1 = 0 | PRKAA1 = 0 | PRKCA 0 | PTK2 = 0 | PTK2B 0 | RAF1 = 0 | [1] 0

O=C(ON=C1c2ccccc2-c2nc3ccccc3nc21)c1ccco1 (2.5 µM)
inactive: PDPK1 = 0 | PIK4CA 0 | PIK4CB 0 | PLK1 = 0 | PRKAA1 = 0 | PRKCA 0 | PTK2 = 0 | PTK2B 0 | RAF1 = 0 | [1] 0

COC(=O)/C=C/c1ccccc1 [Methyl cinnamate] (10 µM)
inactive: PDPK1 = 0 | PIK4CA 0 | PIK4CB 0 | PLK1 = 0 | PRKAA1 = 0 | PRKCA 0 | PTK2 = 0 | PTK2B 0 | RAF1 = 0 | [1] 0

O=C1CC[C@H](NC(=O)Cc2ccccc2)C(=O)N1 [Antineoplaston A10] (10 µM)
inactive: PDPK1 = 0 | PIK4CA 0 | PIK4CB 0 | PLK1 = 0 | PRKAA1 = 0 | PRKCA 0 | PTK2 = 0 | PTK2B 0 | RAF1 = 0 | [1] 0

C=C1C(=O)[C@@]23[C@H](O)C[C@@H]4C(C)(C)C(=O)CC[C@@]4(C)[C@@H]2CC[C@@H]1[C@H]3O [Glaucocalyxin A] (2.5 µM)
inactive: PDPK1 = 0 | PIK4CA 0 | PIK4CB 0 | PLK1 = 0 | PRKAA1 = 0 | PRKCA 0 | PTK2 = 0 | PTK2B 0 | RAF1 = 0 | [1] 0

C=CC(=O)N1CC[C@@H](Oc2nc(Nc3ccc(N4CCC(N5CCN(C)CC5)CC4)cc3)c(C(N)=O)nc2CC)C1 [Naquotinib (mesylate)] (2.5 µM)
inactive: PDPK1 = 0 | PIK4CA 0 | PIK4CB 0 | PLK1 = 0 | PRKAA1 = 0 | PRKCA 0 | PTK2 = 0 | PTK2B 0 | RAF1 = 0 | [1] 0

C=C1CCC[C@]2(C)C=C3OC(=O)C(C)=C3C[C@@H]12 [Atractylenolide I] (10 µM)
inactive: PDPK1 = 0 | PIK4CA 0 | PIK4CB 0 | PLK1 = 0 | PRKAA1 = 0 | PRKCA 0 | PTK2 = 0 | PTK2B 0 | RAF1 = 0 | [1] 0

Two neighbouring records from above, for reference:
O=C1CC[C@H](NC(=O)Cc2ccccc2)C(=O)N1 [Antineoplaston A10] (10 µM)
inactive: PDPK1 = 0 | PIK4CA 0 | PIK4CB 0 | PLK1 = 0 | PRKAA1 = 0 | PRKCA 0 | PTK2 = 0 | PTK2B 0 | RAF1 = 0 | [1] 0

C=C1C(=O)[C@@]23[C@H](O)C[C@@H]4C(C)(C)C(=O)CC[C@@]4(C)[C@@H]2CC[C@@H]1[C@H]3O [Glaucocalyxin A] (2.5 µM)
inactive: PDPK1 = 0 | PIK4CA 0 | PIK4CB 0 | PLK1 = 0 | PRKAA1 = 0 | PRKCA 0 | PTK2 = 0 | PTK2B 0 | RAF1 = 0 | [1] 0

Next part

O=C(O)[C@H]1O[C@@H](Oc2cc3oc(-c4ccc(O)cc4)cc(=O)c3c(O)c2O)[C@H](O)[C@@H](O)[C@@H]1O [Scutellarin] (10 µM)
inactive: PDPK1 = 0 | PIK4CA 0 | PIK4CB 0 | PLK1 = 0 | PRKAA1 = 0 | PRKCA 0 | PTK2 = 0 | PTK2B 0 | RAF1 = 0 | [1] 0

Cc1cc([C@@H](C)Nc2ccccc2C(=O)O)c2nc(N3CCOCC3)cc(=O)n2c1 (10 µM)
inactive: PDPK1 = 0 | PIK4CA 0 | PIK4CB 0 | PLK1 = 0 | PRKAA1 = 0 | PRKCA 0 | PTK2 = 0 | PTK2B 0 | RAF1 = 0 | [1] 0

C[C@H]1O[C@@H](O[C@H]2CC[C@@]3(C)[C@@H](CC[C@]4(C)[C@@H]3C=C[C@]35OC[C@@]6(CCC(C)(C)C[C@H]63)[C@H](O)C[C@]54C)[C@]2(C)CO)[C@H](O)[C@@H](O[C@@H]2O[C@H](CO)[C@@H](O)[C@H](O)[C@H]2O)[C@H]1O [Saikosaponin D] (2.5 µM)
inactive: PDPK1 = 0 | PIK4CA 0 | PIK4CB 0 | PLK1 = 0 | PRKAA1 = 0 | PRKCA 0 | PTK2 = 0 | PTK2B 0 | RAF1 = 0 | [1] 0

COc1ccc(-c2cc(=O)c3c(OC)cc(OC)c(OC)c3o2)cc1 [6-Demethoxytangeretin] (10 µM)
inactive: PDPK1 = 0 | PIK4CA 0 | PIK4CB 0 | PLK1 = 0 | PRKAA1 = 0 | PRKCA 0 | PTK2 = 0 | PTK2B 0 | RAF1 = 0 | [1] 0

Cc1c(Cl)cccc1S(=O)(=O)Nc1nc(NCCc2ccccc2)nc2c1CN(Cc1ccccc1)CC2 (2.5 µM)
inactive: PDPK1 = 0 | PIK4CA 0 | PIK4CB 0 | PLK1 = 0 | PRKAA1 = 0 | PRKCA 0 | PTK2 = 0 | PTK2B 0 | RAF1 = 0 | [1] 0

CCN1CCN(Cc2cnc(Nc3cc(-c4cc(F)c5nc(C)n(C(C)C)c5c4)c(F)cn3)nc2)CC1 (10 µM)
inactive: PDPK1 = 0 | PIK4CA 0 | PIK4CB 0 | PLK1 = 0 | PRKAA1 = 0 | PRKCA 0 | PTK2 = 0 | PTK2B 0 | RAF1 = 0 | [1] 0

Cc1cc(Nc2cc(N3CCN(C)CC3)nc(Nc3ccc([N+](=O)[O-])cc3)n2)n[nH]1 (2.5 µM)
inactive: PDPK1 = 0 | PIK4CA 0 | PIK4CB 0 | PLK1 = 0 | PRKAA1 = 0 | PRKCA 0 | PTK2 = 0 | PTK2B 0 | RAF1 = 0 | [1] 0

Cc1ccc(C(=O)NC2CC2)cc1-n1ncc(C(=O)c2cccc(C#N)c2)c1N [Acumapimod] (10 µM)
inactive: PDPK1 = 0 | PIK4CA 0 | PIK4CB 0 | PLK1 = 0 | PRKAA1 = 0 | PRKCA 0 | PTK2 = 0 | PTK2B 0 | RAF1 = 0 | [1] 0

CO[C@H]1C[C@@H]2CC[C@@H](C)[C@@](O)(O2)C(=O)C(=O)N2CCCC[C@H]2C(=O)O[C@H]([C@H](C)C[C@@H]2CC[C@@H](OC(=O)C(C)(CO)CO)[C@H](OC)C2)CC(=O)[C@H](C)/C=C(\C)[C@@H](O)[C@@H](OC)C(=O)[C@H](C)C[C@H](C)/C=C/C=C/C=C/1C [Temsirolimus] (2.5 µM)
inactive: PDPK1 = 0 | PIK4CA 0 | PIK4CB 0 | PLK1 = 0 | PRKAA1 = 0 | PRKCA 0 | PTK2 = 0 | PTK2B 0 | RAF1 = 0 | [1] 0

COC(=O)[C@H](CCSC)NC(=O)c1ccc(NC[C@@H](N)CS)cc1-c1ccccc1 [FTI-277 (hydrochloride)] (10 µM)
inactive: PDPK1 = 0 | PIK4CA 0 | PIK4CB 0 | PLK1 = 0 | PRKAA1 = 0 | PRKCA 0 | PTK2 = 0 | PTK2B 0 | RAF1 = 0 | [1] 0

Fc1ccc2[nH]ccc2c1-c1nc(N2CCOCC2)c2sc(CN3CCN(CC4CC4)CC3)cc2n1 (10 µM)
inactive: PDPK1 = 0 | PIK4CA 0 | PIK4CB 0 | PLK1 = 0 | PRKAA1 = 0 | PRKCA 0 | PTK2 = 0 | PTK2B 0 | RAF1 = 0 | [1] 0

Cn1c(=O)c2c(nc(S(C)(=O)=O)n2C)n(CC#Cc2cccc(O)c2)c1=O (2.5 µM)
inactive: PDPK1 = 0 | PIK4CA 0 | PIK4CB 0 | PLK1 = 0 | PRKAA1 = 0 | PRKCA 0 | PTK2 = 0 | PTK2B 0 | RAF1 = 0 | [1] 0

C=CC(=O)Nc1cccc(Oc2nc(Nc3ccc(N4CCN(C)CC4)c(F)c3)nc3[nH]ccc23)c1 [Avitinib (maleate)] (2.5 µM)
inactive: PDPK1 = 0 | PIK4CA 0 | PIK4CB 0 | PLK1 = 0 | PRKAA1 = 0 | PRKCA 0 | PTK2 = 0 | PTK2B 0 | RAF1 = 0 | [1] 0

Clc1ccc(C(c2ccc(Cl)cc2)[n+]2ccn(CC(OCc3ccc(Cl)cc3Cl)c3ccc(Cl)cc3Cl)c2)cc1 (stereo not given) [Calmidazolium chloride] (2.5 µM)
inactive: PDPK1 = 0 | PIK4CA 0 | PIK4CB 0 | PLK1 = 0 | PRKAA1 = 0 | PRKCA 0 | PTK2 = 0 | PTK2B 0 | RAF1 = 0 | [1] 0

Nc1ncc(-c2ccnc(Nc3ccncc3)n2)c(CC2CC2)n1 (10 µM)
inactive: PDPK1 = 0 | PIK4CA 0 | PIK4CB 0 | PLK1 = 0 | PRKAA1 = 0 | PRKCA 0 | PTK2 = 0 | PTK2B 0 | RAF1 = 0 | [1] 0

CNC(=O)c1cc2c(Oc3ccc(NC(=O)C4(C(=O)Nc5ccc(F)cc5)CC4)cc3)ccnc2cc1OC (2.5 µM)
inactive: PDPK1 = 0 | PIK4CA 0 | PIK4CB 0 | PLK1 = 0 | PRKAA1 = 0 | PRKCA 0 | PTK2 = 0 | PTK2B 0 | RAF1 = 0 | [1] 0

CO[C@H]1C[C@@H]2CC[C@@H](C)[C@@](O)(O2)C(=O)C(=O)N2CCCC[C@H]2C(=O)O[C@H]([C@H](C)C[C@@H]2CC[C@@H](OCCO)[C@H](OC)C2)CC(=O)[C@H](C)/C=C(\C)[C@@H](O)[C@@H](OC)C(=O)[C@H](C)C[C@H](C)/C=C/C=C/C=C/1C [Everolimus] (10 µM)
inactive: PDPK1 = 0 | PIK4CA 0 | PIK4CB 0 | PLK1 = 0 | PRKAA1 = 0 | PRKCA 0 | PTK2 = 0 | PTK2B 0 | RAF1 = 0 | [1] 0

NC(=O)c1ccc(N(C(N)=O)c2c(F)cccc2F)nc1-c1ccc(F)cc1F (10 µM)
inactive: PDPK1 = 0 | PIK4CA 0 | PIK4CB 0 | PLK1 = 0 | PRKAA1 = 0 | PRKCA 0 | PTK2 = 0 | PTK2B 0 | RAF1 = 0 | [1] 0

N#C/C(=C\c1ccc(O)c(O)c1)C(=O)O [Tyrphostin AG30] (10 µM)
inactive: PDPK1 = 0 | PIK4CA 0 | PIK4CB 0 | PLK1 = 0 | PRKAA1 = 0 | PRKCA 0 | PTK2 = 0 | PTK2B 0 | RAF1 = 0 | [1] 0
